Binding data for two molecules are collected here from PMC8489103.

The chains behind the UniProt entries cited, without tags or fusion partners. Where a name states a change or a piece, a line headed by the entry shows the natural chain unless it says otherwise. Residues count along the entry.
UniProt P02769, residues 25-607: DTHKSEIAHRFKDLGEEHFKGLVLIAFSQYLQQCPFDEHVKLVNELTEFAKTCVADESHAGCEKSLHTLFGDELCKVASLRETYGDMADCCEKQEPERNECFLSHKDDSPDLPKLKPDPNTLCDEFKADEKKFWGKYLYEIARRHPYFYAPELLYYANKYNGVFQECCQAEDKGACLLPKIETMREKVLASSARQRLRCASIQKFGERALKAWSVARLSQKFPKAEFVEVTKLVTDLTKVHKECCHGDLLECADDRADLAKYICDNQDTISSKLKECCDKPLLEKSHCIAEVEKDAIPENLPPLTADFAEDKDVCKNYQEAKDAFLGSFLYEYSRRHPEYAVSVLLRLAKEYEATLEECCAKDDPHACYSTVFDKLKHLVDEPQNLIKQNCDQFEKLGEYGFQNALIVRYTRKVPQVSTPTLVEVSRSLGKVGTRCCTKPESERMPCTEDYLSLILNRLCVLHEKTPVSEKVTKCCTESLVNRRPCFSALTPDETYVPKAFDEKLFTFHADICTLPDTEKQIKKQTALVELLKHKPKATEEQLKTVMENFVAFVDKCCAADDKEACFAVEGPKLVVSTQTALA
UniProt P02452: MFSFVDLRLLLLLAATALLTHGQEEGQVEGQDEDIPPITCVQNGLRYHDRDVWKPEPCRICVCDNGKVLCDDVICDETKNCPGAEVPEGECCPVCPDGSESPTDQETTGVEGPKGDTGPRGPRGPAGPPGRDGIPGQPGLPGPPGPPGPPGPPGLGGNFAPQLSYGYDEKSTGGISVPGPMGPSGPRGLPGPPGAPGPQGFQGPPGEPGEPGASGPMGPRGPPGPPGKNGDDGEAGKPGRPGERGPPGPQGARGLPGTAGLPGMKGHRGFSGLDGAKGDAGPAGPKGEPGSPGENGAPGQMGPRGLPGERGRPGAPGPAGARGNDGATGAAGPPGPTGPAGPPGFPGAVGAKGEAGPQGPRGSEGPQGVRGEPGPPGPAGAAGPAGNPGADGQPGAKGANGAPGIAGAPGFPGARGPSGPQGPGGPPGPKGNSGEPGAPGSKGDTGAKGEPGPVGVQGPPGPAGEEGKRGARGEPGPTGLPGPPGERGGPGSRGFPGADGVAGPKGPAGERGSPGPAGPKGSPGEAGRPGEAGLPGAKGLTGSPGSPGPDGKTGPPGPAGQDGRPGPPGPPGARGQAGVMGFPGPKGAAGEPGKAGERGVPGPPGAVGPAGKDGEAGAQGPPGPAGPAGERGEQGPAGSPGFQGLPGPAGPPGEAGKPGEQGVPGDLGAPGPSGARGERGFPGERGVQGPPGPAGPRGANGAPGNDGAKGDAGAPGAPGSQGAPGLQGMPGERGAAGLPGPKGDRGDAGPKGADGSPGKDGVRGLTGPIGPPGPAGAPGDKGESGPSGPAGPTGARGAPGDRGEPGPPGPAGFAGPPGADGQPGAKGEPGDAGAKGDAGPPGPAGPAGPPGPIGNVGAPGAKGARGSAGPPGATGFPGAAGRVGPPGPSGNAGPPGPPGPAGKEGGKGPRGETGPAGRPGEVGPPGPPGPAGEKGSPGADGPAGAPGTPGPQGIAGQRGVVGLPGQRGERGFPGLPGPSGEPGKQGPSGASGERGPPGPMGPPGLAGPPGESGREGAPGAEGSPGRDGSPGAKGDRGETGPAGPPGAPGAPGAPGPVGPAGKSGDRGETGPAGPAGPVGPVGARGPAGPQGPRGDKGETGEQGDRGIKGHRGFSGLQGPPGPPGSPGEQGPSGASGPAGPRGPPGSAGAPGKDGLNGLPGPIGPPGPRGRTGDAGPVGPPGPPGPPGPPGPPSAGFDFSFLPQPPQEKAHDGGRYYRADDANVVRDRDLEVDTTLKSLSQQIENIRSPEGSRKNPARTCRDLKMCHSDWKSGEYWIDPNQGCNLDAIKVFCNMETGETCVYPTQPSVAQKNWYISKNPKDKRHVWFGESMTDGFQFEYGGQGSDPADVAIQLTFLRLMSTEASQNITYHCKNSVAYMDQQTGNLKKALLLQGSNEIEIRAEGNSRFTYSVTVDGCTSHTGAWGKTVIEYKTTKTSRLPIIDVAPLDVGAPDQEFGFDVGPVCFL

No constants are given. Whether binding was seen depends on the method and setting. Some entries that bind do so weakly or less than the wild type. Tags and fused reporters may be left off the sequences shown.

For one assay, the target named is T1, DDR1-Fc (UniProt Q03146).
T1 sequence: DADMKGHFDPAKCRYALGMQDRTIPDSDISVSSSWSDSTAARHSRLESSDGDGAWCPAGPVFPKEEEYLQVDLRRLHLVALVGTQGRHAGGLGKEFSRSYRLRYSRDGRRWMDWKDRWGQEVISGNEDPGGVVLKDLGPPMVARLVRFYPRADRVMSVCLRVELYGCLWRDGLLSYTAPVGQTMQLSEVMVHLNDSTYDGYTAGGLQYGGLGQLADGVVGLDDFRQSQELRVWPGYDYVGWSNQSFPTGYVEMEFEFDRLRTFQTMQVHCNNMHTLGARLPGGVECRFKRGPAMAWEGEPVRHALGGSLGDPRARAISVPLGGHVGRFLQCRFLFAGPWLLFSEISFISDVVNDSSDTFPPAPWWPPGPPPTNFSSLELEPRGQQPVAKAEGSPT
The assay is described as follows: far-Western, overlay or dot blot; DDR2-Fc, DDR1-Fc or Fc (20 μg per spot) blotted on nitrocellulose; biotinylated C1qA peptide (200 nM) in 3% skim milk, RT, 2 h; detected with streptavidin; both purified.

Assay [1] concerns the target Bovine serum albumin (bovine) (UniProt P02769). Briefly: ELISA; collagen-I (2 μg/mL), C1q (8 μg/mL) or BSA coated on the plate; sDDR2 (0.1, 0.5, 2, 8 μg/mL) added, 37 °C, 2 h; detected with mouse anti-DDR2; both purified. (In general: ELISA stands for enzyme-linked immunosorbent assay.)
Another assay addresses collagen-I (UniProt P02452). The description is as above.

Turning to GSKGEQGEPGAPGI (biotin on the N-terminus) [C1qA peptide (Biotin-…)], the binding result with DDR1-Fc is reported as “binds”.

B1: Recombinant human DDR2 possessing the ectodomain of DDR2 (Gln24-Arg399) with 6 × His-tag on C-terminal (domain or fragment, UniProt Q16832 24-399)
chain: QVNPAICRYPLGMSGGQIPDEDITASSQWSESTAAKYGRLDSEEGDGAWCPEIPVEPDDLKEFLQIDLHTLHFITLVGTQGRHAGGHGIEFAPMYKINYSRDGTRWISWRNRHGKQVLDGNSNPYDIFLKDLEPPIVARFVRFIPVTDHSMNVCMRVELYGCVWLDGLVSYNAPAGQQFVLPGGSIIYLNDSVYDGAVGYSMTEGLGQLTDGVSGLDDFTQTHEYHVWPGYDYVGWRNESATNGYIEIMFEFDRIRNFTTMKVHCNNMFAKGVKIFKEVQCYFRSEASEWEPNAISFPLVLDDVNPSARFVTVPLHHRMASAIKCQYHFADTWMMFSEITFQSDAAMYNNSEALPTSPMAPTTYDPMLKVDDSNTR
As to B1, the binding entry in assay [1] was “no binding (tested: 0.1, 0.5, 2, and 8 μg/mL sDDR2)”; with collagen-I, “binds”.
